Hit rate of the full screen: of about 320,000 compounds, about 22,000 (6.9%) were called active. Inconclusive results, whose numbers are uncertain, are shown with a selection of clear calls. The call rests on the fitted dose curve; in most records, active means well fitted inhibition curve with a large enough effect; inconclusive means small, poorly fitted or top-dose-only effect, or another doubt; inactive means no such curve, though single readings can be large or run the other way. Where the call is inconclusive, the potency comes from a doubtful curve fit.
Assay: Primary qHTS for delayed death inhibitors of the malarial parasite plastid, 96 hour incubation
Details: P. falciparum luciferase reporter growth; series mostly up to 28.7 µM; activity change, negative = inhibition: at the top concentration
In short: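 Luminescence readout: decreased luciferase signal marks inhibited growth of reporter-expressing P. falciparum in infected red cells (2% hematocrit, 0.05% parasitemia final), exposed to compound two generations (96 h, 37 C, 5% CO2).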
On the % scale 0 is the no-effect control and ±100 the full control effect; potency means the concentration at half of the fitted maximal effect.

Row | SMILES | Potency | activity change, negative = inhibition
1 | Oc1ccccc1Nc1ccccn1 | inconclusive: 11.7 µM [inhibitor, single point] | 
2 | O=[N+]([O-])c1ccc(-n2nnnc2-c2ccccc2)c([N+](=O)[O-])c1 | inconclusive: 0.37 µM [inhibitor, partial curve, poor fit] | 
3 | CC(=O)N1CCN(c2ccccc2NC(=O)c2cccs2)CC1 | inconclusive: 4.65 µM [inhibitor, partial curve] | 
4 | CCOc1ccc(N(C)S(=O)(=O)c2ccc(-c3ccc(=O)[nH]n3)s2)cc1 | active: 11.7 µM | 
5 | CCCCNC(=S)NCC(c1ccccc1)c1c[nH]c2ccccc12 (stereo not drawn) | inconclusive: 18.5 µM [inhibitor, single point] | 
6 | C/C(=N/OC(=O)c1ccccc1Br)c1ccc(C)cc1 |  | inactive: -25.1%
7 | COc1ccc(N2CCN(C(=O)c3cccs3)CC2)cc1 | active: 13.1 µM | 
8 | COc1ccc(-n2nnnc2SC(C)C(N)=O)cc1 (stereo not drawn) | active: 11.7 µM | 
9 | CCCCOc1ccc(C2C(C(=O)c3ccc(C)o3)=C(O)C(=O)N2Cc2ccco2)cc1 (stereo not drawn) | inconclusive: 14.7 µM [inhibitor, partial curve] | 
10 | Cc1onc(-c2ccc(Cl)cc2)c1-c1ccnn1S(=O)(=O)c1cccc(C(F)(F)F)c1 | active: 3.29 µM | 
11 | CCOC(=O)c1c(C)[nH]c(C)c1S(=O)(=O)N(C)CC(=O)NCc1ccc(F)cc1 |  | inactive: 30.8%
12 | Cc1cc(/C=C2\C(=O)NC(=O)N(c3ccc(Cl)cc3)C2=O)c(C)n1C |  | inactive: -21%
13 | Cc1c(Cl)c(C(=O)N2CCCC2)nn1C |  | inactive: 21.5%
14 | O=C(Cc1cccs1)NNC(=S)NC(=O)c1ccccc1 | inconclusive: 5.86 µM [inhibitor, partial curve, poor fit] | 
15 | Cc1ccccc1Nc1nnc(SCC(=O)c2ccc(O)cc2O)s1 | inconclusive: 1.31 µM [inhibitor, full curve] | 
16 | COc1ccc(NC(=O)C(NC(=O)c2ccc(=O)[nH]c2)c2ccccc2)cc1 (stereo not drawn) | inconclusive: 11.7 µM [inhibitor, partial curve] | 
17 | CCc1nn(CCCC(=O)NCc2ccc(C)cc2)c(=O)c2cc3occc3n12 | inconclusive: 18.5 µM [inhibitor, single point] | 
18 | COc1ccc(C(C(=O)NC2CCCC2)N(Cc2ccco2)C(=O)c2snc(C(N)=O)c2N)cc1OC (stereo not drawn) | inconclusive: 5.86 µM [inhibitor, partial curve, poor fit] | 
19 | N#CC1=C(N)N2C(=C(C#N)C1c1cccc(Br)c1)Nc1ccccc12 (stereo not drawn) | inconclusive: 2.62 µM [inhibitor, full curve, poor fit] | 
20 | COc1ccc(/C=C2/C(=O)N(Cc3ccco3)C(=O)N(C(C)C)C2=O)cc1 |  | inactive: -4.63%
21 | CCn1c(=O)c(C(C)=O)c(O)c2ccccc21 |  | inactive: -20.6%
22 | O=c1cc(-c2ccccc2)[nH]n2cnnc12 |  | inactive: 25.6%
23 | COc1ccccc1C1=NNC(=NCc2ccccc2)SC1 |  | inactive: 50%
24 | O=C(CSc1nnc(NC(=O)C2CCC2)s1)Nc1ccc(N2CCOCC2)cc1 |  | inactive: -23.3%
25 | CCOC(=O)c1c(C)[nH]c(C(=O)OCC(=O)NCc2ccc(OC)c(OC)c2)c1C | inconclusive: 0.37 µM [inhibitor, partial curve] | 

Row | SMILES | Potency | activity change, negative = inhibition
26 | COCCn1c(SC(C)C(=O)NCC2CCCO2)nc2sc3c(c2c1=O)CCC3 (stereo not drawn) | active: 8.28 µM | 
27 | COc1ccc(C2=NN(C(C#N)c3ccc(OC)cc3)C(c3ccccc3)C2)cc1 (stereo not drawn) |  | inactive: 70.8%
28 | Cc1cc(=O)oc2cc(OCC(=O)N/N=C/c3ccccc3[N+](=O)[O-])ccc12 | inconclusive: 11.7 µM [inhibitor, partial curve, poor fit] | 
29 | COc1ccc(Nc2nc(N)nc(CSC(=S)N3CCC(C)CC3)n2)cc1 | inconclusive: 9.28 µM [inhibitor, single point] | 
30 | Cc1ccccc1OCC(=O)Nc1ccccc1N1CCOCC1 | inconclusive: 18.5 µM [inhibitor, single point] | 
31 | CCCCC[C@H]1CN(Cc2ccccc2)C(=O)[C@@H]1CC(=O)NCc1ccccc1 | inconclusive: 18.5 µM [inhibitor, single point] | 
32 | CCCNS(=O)(=O)c1ccc(CCC(=O)NCc2ccco2)cc1 | inconclusive: 5.22 µM [inhibitor, partial curve] | 
33 | O=C(CN(Cc1ccccc1Cl)S(=O)(=O)c1ccc(Cl)cc1)N/N=C/c1ccc(C(=O)O)cc1 | inconclusive: 18.5 µM [inhibitor, single point] | 
34 | COc1ccc(C(=O)NC(C)CCc2ccccc2)cc1[N+](=O)[O-] (stereo not drawn) |  | inactive: -6.38%
35 | CCOc1ccc(CN2CCN(Cc3cn(CC)nc3C)CC2CCO)cc1 (stereo not drawn) | inconclusive: 18.5 µM [inhibitor, single point] | 
36 | O=C(NC(=S)N1C[C@H]2C[C@H](C1)c1cccc(=O)n1C2)c1ccc(Cl)cc1 | inconclusive: 18.5 µM [inhibitor, single point] | 
37 | COCc1cc(=O)[nH]c(N2CCN(c3ccccc3OC)CC2)n1 | active: 8.28 µM | 
38 | CCOC(=O)C1=C(C)NC(=O)NC1c1cc(C)sc1C (stereo not drawn) | inconclusive: 11.7 µM [inhibitor, partial curve, poor fit] | 
39 | CCOc1ccc(S(=O)(=O)N2CCC(C(=O)NCC3CCCO3)CC2)cc1C (stereo not drawn) | active: 2.33 µM | 
40 | O=C(COc1ccccc1)NCc1ccccc1 |  | inactive: 55.4%
41 | CC(C)CC[n+]1ccn(-c2nc3ccccc3nc2[N-]S(=O)(=O)c2ccc(Cl)cc2)c1 | inconclusive: 18.5 µM [inhibitor, partial curve, poor fit] | 
42 | Cc1cc(C)c(C#N)c(SCc2ccc(C(=O)O)cc2)n1 | inconclusive: 10.4 µM [inhibitor, single point] | 
43 | CCN(CC)S(=O)(=O)c1cccc(NC(=O)c2cccc(S(=O)(=O)N3CCCC3)c2)c1 | active: 11.7 µM | 
44 | CCC(C)(C)NC(=O)C(c1ccc(OC)cc1)N(C(=O)CCC(=O)Nc1cc(C)on1)c1ccc(OC)cc1OC (stereo not drawn) |  | inactive: 26.5%
45 | Cc1ccc(O)c(NC(=O)C2CCCN2C(=O)OCc2ccccc2)c1 (stereo not drawn) | inconclusive: 16.5 µM [inhibitor, single point] | 
46 | Cc1c(O)ccc2c(-c3ccccc3)cc(=O)oc12 |  | inactive: -13.1%
47 | O=C(NCc1ccco1)c1ccc(S(=O)(=O)N2CCCCCC2)cc1 | active: 10.4 µM | 
48 | Cc1nn2c(N3CCCC3)cc(C(C)C)nc2c1-c1ccccc1 |  | inactive: 16.8%
49 | O=C(c1c[nH]c2ccccc12)N1CCN(c2ccccc2)CC1 | inconclusive: 0.0329 µM [inhibitor, full curve, poor fit] | 
50 | O=C1NC(c2ccc3c(c2)OCO3)Nc2ccccc21 (stereo not drawn) | inconclusive: 18.5 µM [inhibitor, single point] | 

Row | SMILES | Potency | activity change, negative = inhibition
51 | Cc1ccc2nc(-c3ccccn3)[nH]c2c1 | inconclusive: 11.7 µM [inhibitor, partial curve] | 
52 | COc1cc(/C=N/NC(=O)c2cc3ccccc3cc2O)ccc1OCCN1CCCCC1 | inconclusive: 16.5 µM [inhibitor, single point] | 
53 | O=C(c1ccccc1)N1CCN(c2ccc(Cl)cc2)CC1 | active: 14.7 µM | 
54 | Cc1ccc(N2CC(C(=O)Nc3nnc(SCCN4CCOCC4)s3)CC2=O)cc1 (stereo not drawn) | inconclusive: 10.4 µM [inhibitor, single point] | 
55 | COc1cc(C(=O)Nc2sc(C)c(C)c2C(=O)O)cc(OC)c1OC |  | inactive: 22.7%
56 | COc1ccc(C(CC(=O)Nc2cc(C)ccn2)N2Cc3ccccc3C2=O)cc1 (stereo not drawn) |  | inactive: 3.98%
57 | Cc1ccc(CNn2cnnc2SCC(=O)NC(C)(C)C)cc1 | inconclusive: 18.5 µM [inhibitor, single point] | 
58 | O=C(CNCc1ccc(F)cc1)Nc1ccc(S(=O)(=O)N2CCOCC2)cc1 | inconclusive: 11.7 µM [inhibitor, single point] | 
59 | CSc1ccc(CN2CCCC(N3CCN(c4ccccc4)CC3)C2)cc1 (stereo not drawn) | active: 9.28 µM | 
60 | COc1cc(NC(=O)C(C)Oc2ccccc2)c(OC)cc1NC(=O)c1ccccc1 (stereo not drawn) | inconclusive: 6.57 µM [inhibitor, partial curve] | 
61 | CCN(CC)S(=O)(=O)c1ccc(N2CCN(CCOc3ccc(OC)cc3)CC2)nc1 | inconclusive: 8.28 µM [inhibitor, partial curve] | 
62 | COC(=O)/N=C(/Cc1ccc(OC)cc1)c1ccc(OC)cc1 |  | inactive: 30.9%
63 | COc1ccccc1-c1nnc(SCC(=O)NC2CCS(=O)(=O)C2)n1CCc1ccccc1 (stereo not drawn) |  | inactive: 5.32%
64 | CSc1ccc(/C=N/NC(=O)COc2ccc(Br)cc2Cl)cc1 | inconclusive: 11.7 µM [inhibitor, single point] | 
65 | CC(=O)c1ccc(C(=O)Nc2sc3c(c2C(N)=O)CCN(Cc2ccccc2)C3)cc1 | inconclusive: 11.7 µM [inhibitor, single point] | 
66 | Cc1nc(Cl)c2oc3ccccc3c2n1 |  | inactive: 102%
67 | COc1ccc(/C(C)=N/Nc2nc3ccccc3n3cnnc23)cc1OC | inconclusive: 9.28 µM [inhibitor, partial curve, poor fit] | 
68 | O=C(/C=C/c1cccs1)N1CCC2(CC1)Oc1ccc(Cl)cc1C(=O)C21CC(c2ccccc2)=NO1 (stereo not drawn) | inconclusive: 10.4 µM [inhibitor, partial curve] | 
69 | COC(=O)C1=C(c2ccc(-c3ccccc3)c(F)c2)C[C@@H]2CC[C@H]1N2C(=O)NCCNC(C)=O |  | inactive: -5.89%
70 | c1ccc(CCNCC2COc3ccccc3O2)cc1 (stereo not drawn) |  | inactive: 5.43%
71 | O=C(Nc1ccccc1N1CCCCC1)c1ccc(F)cc1 | inconclusive: 10.4 µM [inhibitor, single point] | 
72 | c1ccc(NC2=NCCN2CCC2CCCCC2)cc1 | inconclusive: 2.33 µM [inhibitor, partial curve, poor fit] | 
73 | O=C(NCCCN1CCCC1)c1ccc(CS(=O)(=O)c2ccc(Br)cc2)o1 | inconclusive: 3.29 µM [inhibitor, partial curve, poor fit] | 

Some of the entries so far, in markdown.

| Row | SMILES | Potency | activity change, negative = inhibition |
| --- | --- | --- | --- |
| 59 | CSc1ccc(CN2CCCC(N3CCN(c4ccccc4)CC3)C2)cc1 (stereo not drawn) | active: 9.28 µM |  |
| 60 | COc1cc(NC(=O)C(C)Oc2ccccc2)c(OC)cc1NC(=O)c1ccccc1 (stereo not drawn) | inconclusive: 6.57 µM [inhibitor, partial curve] |  |
| 61 | CCN(CC)S(=O)(=O)c1ccc(N2CCN(CCOc3ccc(OC)cc3)CC2)nc1 | inconclusive: 8.28 µM [inhibitor, partial curve] |  |
| 62 | COC(=O)/N=C(/Cc1ccc(OC)cc1)c1ccc(OC)cc1 |  | inactive: 30.9% |
| 63 | COc1ccccc1-c1nnc(SCC(=O)NC2CCS(=O)(=O)C2)n1CCc1ccccc1 (stereo not drawn) |  | inactive: 5.32% |
| 64 | CSc1ccc(/C=N/NC(=O)COc2ccc(Br)cc2Cl)cc1 | inconclusive: 11.7 µM [inhibitor, single point] |  |
